These are yes or no findings as the source states them, for the method shown. In cells and extracts the contact can be indirect. Binding calls can cover weak binding; strength is not graded here. For part of these data: Tags and fused reporters may be left off the sequences shown. One block for each molecule: values may come before it.
Key:
Assay in all cases: co-IP
[1] = molecular target: T1, NAP1-GFP (Arabidopsis thaliana) (UniProt Q5S2C4)
T1 sequence: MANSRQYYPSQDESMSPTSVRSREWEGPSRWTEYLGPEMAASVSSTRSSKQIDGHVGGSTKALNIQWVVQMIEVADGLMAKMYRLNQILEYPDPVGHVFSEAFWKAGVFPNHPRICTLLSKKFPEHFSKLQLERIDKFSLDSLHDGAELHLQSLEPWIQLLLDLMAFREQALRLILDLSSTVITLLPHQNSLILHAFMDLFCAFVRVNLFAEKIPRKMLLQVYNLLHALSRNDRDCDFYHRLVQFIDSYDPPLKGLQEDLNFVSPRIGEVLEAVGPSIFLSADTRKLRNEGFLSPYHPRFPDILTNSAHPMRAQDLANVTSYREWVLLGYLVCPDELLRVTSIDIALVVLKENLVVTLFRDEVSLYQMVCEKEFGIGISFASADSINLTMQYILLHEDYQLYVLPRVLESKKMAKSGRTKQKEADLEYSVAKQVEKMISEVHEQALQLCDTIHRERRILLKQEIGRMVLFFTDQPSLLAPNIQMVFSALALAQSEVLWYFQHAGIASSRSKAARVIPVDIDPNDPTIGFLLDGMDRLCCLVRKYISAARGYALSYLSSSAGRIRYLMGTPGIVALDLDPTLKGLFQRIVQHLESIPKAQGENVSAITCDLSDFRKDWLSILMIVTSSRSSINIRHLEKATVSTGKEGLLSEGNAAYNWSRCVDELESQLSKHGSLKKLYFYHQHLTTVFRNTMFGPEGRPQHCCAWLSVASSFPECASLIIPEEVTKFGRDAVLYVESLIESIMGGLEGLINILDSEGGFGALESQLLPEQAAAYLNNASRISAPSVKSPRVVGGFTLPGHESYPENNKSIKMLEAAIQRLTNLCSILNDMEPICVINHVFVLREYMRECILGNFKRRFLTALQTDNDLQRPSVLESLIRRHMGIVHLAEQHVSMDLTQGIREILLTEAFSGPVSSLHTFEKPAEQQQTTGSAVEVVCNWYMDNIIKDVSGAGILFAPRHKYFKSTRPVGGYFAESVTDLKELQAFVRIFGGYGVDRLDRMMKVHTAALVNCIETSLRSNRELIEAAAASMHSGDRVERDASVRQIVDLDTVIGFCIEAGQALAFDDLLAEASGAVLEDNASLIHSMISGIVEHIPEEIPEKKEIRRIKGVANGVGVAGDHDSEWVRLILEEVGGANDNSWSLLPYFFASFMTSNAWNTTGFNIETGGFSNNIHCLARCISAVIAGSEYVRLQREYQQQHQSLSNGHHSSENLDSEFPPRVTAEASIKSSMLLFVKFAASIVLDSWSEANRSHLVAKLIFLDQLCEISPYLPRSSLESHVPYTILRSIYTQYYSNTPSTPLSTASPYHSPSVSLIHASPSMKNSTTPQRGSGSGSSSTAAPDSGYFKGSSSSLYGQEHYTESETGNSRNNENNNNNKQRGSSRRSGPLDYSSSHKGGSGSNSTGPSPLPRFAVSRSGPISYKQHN

[2] = molecular target: GFP-ARPC2 (co-expressed with ATG8f-mRFP in Arabidopsis) (not stated (Arabidopsis thaliana or tobacco ARPC2 construct))
[3] = molecular target: GFP-ARPC5 (in tobacco leaves) (Arabidopsis thaliana)

binding [1]: binds
Molecule: AtARPC5-mCherry (Arabidopsis thaliana)

binding [2]: binds
B1: ATG8f-mRFP (in Arabidopsis) (protein, UniProt Q8VYK7 1-117)
chain: MAKSSFKQEHDLEKRRAEAARIREKYPDRIPVIVEKAEKSDIPTIDKKKYLVPADLTVGQFVYVIRKRIKLSAEKAIFIFVDNVLPPAGALMSSVYEEKKDDDGFLYVTYSGENTFG

binding [3]: binds
B2: ATG8f-mRFP (in tobacco leaves) (protein, UniProt Q8VYK7 1-117)
chain: MAKSSFKQEHDLEKRRAEAARIREKYPDRIPVIVEKAEKSDIPTIDKKKYLVPADLTVGQFVYVIRKRIKLSAEKAIFIFVDNVLPPAGALMSSVYEEKKDDDGFLYVTYSGENTFG

Reference: doi:10.1101/2022.04.07.487451
